Values of other authors as cited in patent US20230201149A1, “METHODS OF ANTIPATHOGENIC TREATMENT” (priority 2020, published 2023).
For at least one compound, name, drawing or mass did not settle the structure.

Test system: COVID-19
Conditions: therapeutic concentrations of omeprazole; cited from earlier work

**Q.** With `CCC(CC)COC(=O)[C@H](C)N[P@](=O)(OC[C@H]1O[C@@](C#N)(c2ccc3c(N)ncnn23)[C@H](O)[C@@H]1O)Oc1ccccc1` [Remdesivir] as the molecule, how does the “increase of efficacy by addition of omeprazole” value read?
**A.** Its value is 10 fold.
